Test results as given in the supplement of paper PMC12067093, “Discovery and optimisation of a covalent ligand for TRIM25 and its application to targeted protein ubiquitination” (Chemical Science, 2025).
This is one part of the list.

Sequences of proteins named here, by UniProt entry; tags and fusion partners are left off. A change or cut given only in a name is not applied to a line headed by its entry.
UniProt Q9NRX4: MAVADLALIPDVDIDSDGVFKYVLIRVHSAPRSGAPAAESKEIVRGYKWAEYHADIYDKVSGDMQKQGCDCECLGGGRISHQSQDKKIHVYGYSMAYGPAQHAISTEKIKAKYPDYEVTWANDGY
UniProt Q01813: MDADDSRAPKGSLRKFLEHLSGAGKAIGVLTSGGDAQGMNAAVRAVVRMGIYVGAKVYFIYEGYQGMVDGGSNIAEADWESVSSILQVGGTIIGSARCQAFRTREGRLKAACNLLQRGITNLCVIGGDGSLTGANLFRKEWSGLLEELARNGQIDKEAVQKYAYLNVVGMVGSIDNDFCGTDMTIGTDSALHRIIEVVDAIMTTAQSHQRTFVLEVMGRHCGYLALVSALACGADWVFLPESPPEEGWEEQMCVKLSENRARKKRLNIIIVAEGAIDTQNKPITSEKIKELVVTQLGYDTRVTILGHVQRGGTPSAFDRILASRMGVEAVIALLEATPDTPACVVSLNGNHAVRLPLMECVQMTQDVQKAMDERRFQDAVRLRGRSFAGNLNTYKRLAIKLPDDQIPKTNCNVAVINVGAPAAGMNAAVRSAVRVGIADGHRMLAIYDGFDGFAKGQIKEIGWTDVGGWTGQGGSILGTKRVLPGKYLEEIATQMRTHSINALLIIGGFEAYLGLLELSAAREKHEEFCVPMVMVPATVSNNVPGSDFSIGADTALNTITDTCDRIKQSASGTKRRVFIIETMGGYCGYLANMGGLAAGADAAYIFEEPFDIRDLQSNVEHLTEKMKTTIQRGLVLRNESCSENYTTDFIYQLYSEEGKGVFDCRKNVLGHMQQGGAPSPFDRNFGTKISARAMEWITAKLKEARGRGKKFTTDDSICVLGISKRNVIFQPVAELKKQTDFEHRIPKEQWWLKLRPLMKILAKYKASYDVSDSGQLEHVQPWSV
UniProt O43175: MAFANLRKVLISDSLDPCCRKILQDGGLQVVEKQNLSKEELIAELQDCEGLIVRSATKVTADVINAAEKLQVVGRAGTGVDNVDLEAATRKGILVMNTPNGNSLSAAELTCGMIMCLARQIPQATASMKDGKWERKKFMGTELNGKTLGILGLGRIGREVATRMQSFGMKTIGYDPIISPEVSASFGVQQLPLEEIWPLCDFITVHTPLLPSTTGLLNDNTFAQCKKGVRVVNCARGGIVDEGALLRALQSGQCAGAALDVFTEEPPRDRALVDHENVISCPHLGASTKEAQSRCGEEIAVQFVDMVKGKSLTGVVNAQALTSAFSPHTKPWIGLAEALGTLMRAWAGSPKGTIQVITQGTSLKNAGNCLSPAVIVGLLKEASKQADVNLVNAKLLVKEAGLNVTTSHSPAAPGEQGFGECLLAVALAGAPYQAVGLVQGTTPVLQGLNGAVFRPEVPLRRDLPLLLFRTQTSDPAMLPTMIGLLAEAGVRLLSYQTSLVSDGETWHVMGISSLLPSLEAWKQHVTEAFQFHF
UniProt P35080, whole entry: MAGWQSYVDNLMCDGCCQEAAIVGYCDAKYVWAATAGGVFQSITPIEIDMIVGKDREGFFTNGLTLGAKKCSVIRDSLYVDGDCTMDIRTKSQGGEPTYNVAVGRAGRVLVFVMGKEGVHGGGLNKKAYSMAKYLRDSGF
UniProt P52209: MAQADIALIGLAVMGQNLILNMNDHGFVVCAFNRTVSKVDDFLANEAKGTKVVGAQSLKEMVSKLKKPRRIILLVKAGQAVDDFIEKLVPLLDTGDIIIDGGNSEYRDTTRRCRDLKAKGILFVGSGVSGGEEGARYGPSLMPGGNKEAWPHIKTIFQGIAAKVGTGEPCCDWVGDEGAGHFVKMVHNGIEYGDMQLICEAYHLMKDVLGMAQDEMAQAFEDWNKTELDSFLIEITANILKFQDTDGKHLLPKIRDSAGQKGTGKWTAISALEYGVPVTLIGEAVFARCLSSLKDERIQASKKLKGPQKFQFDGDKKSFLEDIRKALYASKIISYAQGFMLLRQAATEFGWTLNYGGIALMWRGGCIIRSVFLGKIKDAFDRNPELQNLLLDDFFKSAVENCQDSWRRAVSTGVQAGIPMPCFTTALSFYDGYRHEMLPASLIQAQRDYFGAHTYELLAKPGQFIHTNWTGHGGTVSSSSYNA
UniProt Q9BTU6: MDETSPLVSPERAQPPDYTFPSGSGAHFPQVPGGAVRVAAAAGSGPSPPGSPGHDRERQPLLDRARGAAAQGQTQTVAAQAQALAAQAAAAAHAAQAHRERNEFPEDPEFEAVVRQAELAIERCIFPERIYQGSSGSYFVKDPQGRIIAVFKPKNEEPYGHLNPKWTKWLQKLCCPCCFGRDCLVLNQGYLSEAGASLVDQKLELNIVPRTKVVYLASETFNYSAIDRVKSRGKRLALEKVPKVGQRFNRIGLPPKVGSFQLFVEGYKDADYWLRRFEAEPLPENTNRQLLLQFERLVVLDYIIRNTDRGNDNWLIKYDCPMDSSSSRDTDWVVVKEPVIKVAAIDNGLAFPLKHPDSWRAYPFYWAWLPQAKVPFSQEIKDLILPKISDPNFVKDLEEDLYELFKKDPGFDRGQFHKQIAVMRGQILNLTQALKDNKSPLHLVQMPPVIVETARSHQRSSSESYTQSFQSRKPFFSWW
UniProt P46020: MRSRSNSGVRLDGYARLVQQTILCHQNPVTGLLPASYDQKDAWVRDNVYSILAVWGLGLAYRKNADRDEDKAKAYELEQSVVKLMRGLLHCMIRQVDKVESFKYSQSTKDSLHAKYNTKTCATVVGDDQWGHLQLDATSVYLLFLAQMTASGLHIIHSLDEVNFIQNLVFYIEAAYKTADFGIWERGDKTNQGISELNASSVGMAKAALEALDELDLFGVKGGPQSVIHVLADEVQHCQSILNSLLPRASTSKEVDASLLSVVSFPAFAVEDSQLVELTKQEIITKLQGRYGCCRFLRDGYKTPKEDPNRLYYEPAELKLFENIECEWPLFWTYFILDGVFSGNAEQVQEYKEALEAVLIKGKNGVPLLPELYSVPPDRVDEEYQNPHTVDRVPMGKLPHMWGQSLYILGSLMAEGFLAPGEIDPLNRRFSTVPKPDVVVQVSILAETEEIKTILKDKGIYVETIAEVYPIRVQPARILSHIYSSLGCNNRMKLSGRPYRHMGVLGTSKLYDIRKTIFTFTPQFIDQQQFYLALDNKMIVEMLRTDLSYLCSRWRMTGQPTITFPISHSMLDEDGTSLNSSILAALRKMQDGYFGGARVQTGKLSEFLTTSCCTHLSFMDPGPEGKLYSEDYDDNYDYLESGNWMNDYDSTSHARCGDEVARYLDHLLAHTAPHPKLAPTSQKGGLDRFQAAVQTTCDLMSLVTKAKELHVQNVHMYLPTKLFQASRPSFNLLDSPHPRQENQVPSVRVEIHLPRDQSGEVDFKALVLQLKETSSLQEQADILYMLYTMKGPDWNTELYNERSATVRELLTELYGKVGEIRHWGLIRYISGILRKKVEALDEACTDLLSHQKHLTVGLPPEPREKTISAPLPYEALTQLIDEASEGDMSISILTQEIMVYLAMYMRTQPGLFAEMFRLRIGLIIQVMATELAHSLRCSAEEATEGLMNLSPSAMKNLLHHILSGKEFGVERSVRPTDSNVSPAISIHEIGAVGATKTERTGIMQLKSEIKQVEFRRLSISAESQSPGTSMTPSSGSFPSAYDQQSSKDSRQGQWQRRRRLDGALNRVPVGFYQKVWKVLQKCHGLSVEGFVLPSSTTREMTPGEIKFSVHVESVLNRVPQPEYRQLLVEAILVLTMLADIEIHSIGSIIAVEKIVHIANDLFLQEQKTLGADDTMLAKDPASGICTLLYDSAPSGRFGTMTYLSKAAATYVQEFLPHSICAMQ
UniProt P07737, whole entry, looked up: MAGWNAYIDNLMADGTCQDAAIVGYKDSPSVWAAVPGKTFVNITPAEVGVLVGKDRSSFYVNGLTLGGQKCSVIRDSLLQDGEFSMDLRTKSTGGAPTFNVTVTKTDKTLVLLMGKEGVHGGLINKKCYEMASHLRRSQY
UniProt P36871: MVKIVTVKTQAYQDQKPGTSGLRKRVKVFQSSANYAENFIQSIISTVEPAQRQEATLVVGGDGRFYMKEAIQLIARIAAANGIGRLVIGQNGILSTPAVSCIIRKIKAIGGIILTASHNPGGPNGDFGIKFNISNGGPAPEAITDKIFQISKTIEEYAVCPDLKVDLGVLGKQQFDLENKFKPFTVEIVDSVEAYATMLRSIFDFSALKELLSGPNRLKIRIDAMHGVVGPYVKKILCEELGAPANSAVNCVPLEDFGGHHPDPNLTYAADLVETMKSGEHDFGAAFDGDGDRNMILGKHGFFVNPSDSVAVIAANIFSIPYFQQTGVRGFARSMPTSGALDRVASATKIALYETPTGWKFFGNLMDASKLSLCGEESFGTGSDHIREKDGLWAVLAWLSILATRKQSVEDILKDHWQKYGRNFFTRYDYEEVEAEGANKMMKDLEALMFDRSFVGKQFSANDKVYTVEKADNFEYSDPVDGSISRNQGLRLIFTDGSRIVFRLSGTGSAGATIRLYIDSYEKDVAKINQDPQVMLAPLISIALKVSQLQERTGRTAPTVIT
UniProt Q8IWS0: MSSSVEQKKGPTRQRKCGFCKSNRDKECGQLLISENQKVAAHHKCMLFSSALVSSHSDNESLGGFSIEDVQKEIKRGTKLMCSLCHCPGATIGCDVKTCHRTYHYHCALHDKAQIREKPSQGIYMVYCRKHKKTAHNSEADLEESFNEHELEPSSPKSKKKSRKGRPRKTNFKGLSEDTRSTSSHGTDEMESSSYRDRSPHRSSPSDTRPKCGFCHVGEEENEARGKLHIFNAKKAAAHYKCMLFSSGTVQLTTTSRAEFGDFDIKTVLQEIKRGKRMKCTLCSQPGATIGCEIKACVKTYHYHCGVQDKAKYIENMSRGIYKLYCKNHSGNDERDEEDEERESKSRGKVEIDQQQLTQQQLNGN
UniProt Q9P1Y6: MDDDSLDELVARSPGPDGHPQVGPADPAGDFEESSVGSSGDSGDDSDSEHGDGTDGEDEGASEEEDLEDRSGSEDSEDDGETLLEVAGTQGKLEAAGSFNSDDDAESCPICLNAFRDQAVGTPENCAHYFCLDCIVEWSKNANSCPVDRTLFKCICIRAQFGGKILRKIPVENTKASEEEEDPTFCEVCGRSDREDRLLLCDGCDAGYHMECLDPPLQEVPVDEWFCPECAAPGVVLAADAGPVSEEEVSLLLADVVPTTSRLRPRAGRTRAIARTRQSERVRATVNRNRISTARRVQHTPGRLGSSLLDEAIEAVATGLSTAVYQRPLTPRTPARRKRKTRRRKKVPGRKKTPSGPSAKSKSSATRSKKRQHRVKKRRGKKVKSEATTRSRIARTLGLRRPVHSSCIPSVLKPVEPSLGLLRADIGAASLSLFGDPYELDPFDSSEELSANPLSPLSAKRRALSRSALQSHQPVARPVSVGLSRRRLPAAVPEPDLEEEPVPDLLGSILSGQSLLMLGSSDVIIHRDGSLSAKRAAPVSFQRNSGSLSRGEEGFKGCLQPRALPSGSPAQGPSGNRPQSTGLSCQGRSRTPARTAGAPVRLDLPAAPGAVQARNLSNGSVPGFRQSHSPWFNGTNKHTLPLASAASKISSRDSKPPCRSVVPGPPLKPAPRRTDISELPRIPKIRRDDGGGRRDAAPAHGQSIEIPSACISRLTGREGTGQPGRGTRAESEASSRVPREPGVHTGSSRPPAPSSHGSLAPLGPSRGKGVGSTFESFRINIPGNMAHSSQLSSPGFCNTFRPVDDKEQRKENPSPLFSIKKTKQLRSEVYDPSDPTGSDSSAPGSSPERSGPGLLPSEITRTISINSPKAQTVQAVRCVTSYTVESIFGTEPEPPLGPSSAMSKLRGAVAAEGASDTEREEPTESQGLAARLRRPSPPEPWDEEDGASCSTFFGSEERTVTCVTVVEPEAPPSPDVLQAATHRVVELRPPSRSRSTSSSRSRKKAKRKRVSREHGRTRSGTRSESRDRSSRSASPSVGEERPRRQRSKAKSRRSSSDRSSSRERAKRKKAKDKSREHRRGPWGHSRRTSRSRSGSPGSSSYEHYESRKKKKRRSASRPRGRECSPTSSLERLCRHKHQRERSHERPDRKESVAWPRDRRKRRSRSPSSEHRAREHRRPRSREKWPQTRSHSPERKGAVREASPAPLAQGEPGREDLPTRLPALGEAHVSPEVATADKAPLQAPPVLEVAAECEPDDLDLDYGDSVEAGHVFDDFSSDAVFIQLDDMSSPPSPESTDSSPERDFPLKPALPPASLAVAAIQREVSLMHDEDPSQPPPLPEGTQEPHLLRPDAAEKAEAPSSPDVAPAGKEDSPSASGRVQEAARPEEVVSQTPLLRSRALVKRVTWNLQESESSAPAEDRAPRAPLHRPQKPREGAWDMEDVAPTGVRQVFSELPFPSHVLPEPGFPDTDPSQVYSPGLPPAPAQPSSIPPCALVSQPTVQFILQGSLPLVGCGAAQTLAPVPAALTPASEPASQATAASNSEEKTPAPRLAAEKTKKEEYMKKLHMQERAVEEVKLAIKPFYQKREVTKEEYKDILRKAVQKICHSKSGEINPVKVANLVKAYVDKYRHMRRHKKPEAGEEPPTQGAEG

Compound: CC1Cc2ccccc2N1C(=O)C1CCCN(C1)C(=O)CCl (mixture of isomers) [TRIM25 ligand 11 (diastereomer mixture)]
Experiment: probe-labelled cysteine peptide fold change vs DMSO (competition) (log2 fold change); higher = less target engagement (more negative = stronger competition)
Conditions: THP-1, incubation time: 4 h
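Also: competitive chemoproteomic profiling in live THP-1 cells with an iodoacetamide desthiobiotin (IA-DTB) probe, comparing probe-labelled peptide intensities in compound-treated cells against DMSO-treated controls.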

Target | probe-labelled cysteine peptide fold change (10 µM) | probe-labelled cysteine peptide fold change (50 µM)
PFAS_O15067_351_GAHVVAGTAGYCFGNLHIPGYNLPWEDPSFQYPGNFAR (UniProt O15067) | -0.161 | -0.105
PHPT1_Q9NRX4_71_QGCDCECLGGGR (UniProt Q9NRX4) | -0.0941 | 0.0226
PFAS_O15067_1027_CVAEEER (UniProt O15067) | -0.0521 | -0.123
PHF12_Q96QT6_613_TENATGPSSCPQR (UniProt Q96QT6) | 0.0325 | -0.224
PFKP_Q01813_641_NESCSENYTTDFIYQLYSEEGK (UniProt Q01813) | 0.104 | -0.0845
PHIP_Q8WWQ0_245_GHAAEISDMAVNYENTMIAAGSCDK (UniProt Q8WWQ0) | 0.0498 | 0.127
PEX5_P50542_566_YNLGISCINLGAHR (UniProt P50542) | -0.016 | 0.127
PDZD8_Q8NEN9_667_DVTSETSCPTK (UniProt Q8NEN9) | -0.316 | -0.444
PHGDH_O43175_254_ALQSGQCAGAALDVFTEEPPRDR (UniProt O43175) | -0.162 | 0.033
PFN2_P35080_84_DSLYVDGDCTMDIR (UniProt P35080) | 0.403 | 0.375
PGD_P52209_170+171_VGTGEPCCDWVGDEGAGHFVK (UniProt P52209) | -0.0163 | -0.204
PI4K2A_Q9BTU6_124_CIFPER (UniProt Q9BTU6) | 0.133 | 0.285
PHKA1_P46020_697_FQAAVQTTCDLMSLVTK (UniProt P46020) | -0.0847 | -0.109
PFKP_Q01813_123_GITNLCVIGGDGSLTGANLFRK (UniProt Q01813) | -0.349 | -0.157
PFN1_P07737_17_AGWNAYIDNLMADGTCQDAAIVGYK (UniProt P07737) | -0.0393 | -0.163
PGM1_P36871_374_LSLCGEESFGTGSDHIR (UniProt P36871) | -0.00372 | 0.0469
PFKP_Q01813_718_FTTDDSICVLGISK (UniProt Q01813) | 0.00213 | 0.0649
PGD_P52209_199_MVHNGIEYGDMQLICEAYHLMK (UniProt P52209) | 0.096 | -0.0225
PHB_P35232_69_GVQDIVVGEGTHFLIPWVQKPIIFDCR (UniProt P35232) | 0.115 | -0.0805

Target | probe-labelled cysteine peptide fold change (10 µM) | probe-labelled cysteine peptide fold change (50 µM)
PFAS_O15067_606_IVLVDDRECPVRR (UniProt O15067) | -0.0274 | -0.07
PHLPP1_O60346_1028_CVPLLTGHPHLK (UniProt O60346) | 0.0676 | 0.303
PFAS_O15067_270_FCDNSSAIQGK (UniProt O15067) | -0.0455 | -0.277
PIAS1_O75925_228_VNTKPCSLPGYLPPTK (UniProt O75925) | -0.13 | -0.154
PI4KA_P42356_1774_VQPGCYLPSNPEAIVLDIDYK (UniProt P42356) | -0.166 | -0.161
PHF14_O94880-2_607+612_LCYHFGCLDPPLK (UniProt O94880) | 0.273 | 0.109
PHGDH_O43175_369_NAGNCLSPAVIVGLLK (UniProt O43175) | -0.153 | -0.228
PGD_P52209_422_AVSTGVQAGIPMPCFTTALSFYDGYR (UniProt P52209) | 0.175 | -0.348
PEX11B_O96011_153_LLMEQESSACSR (UniProt O96011) | 0.0598 | -0.186
PHF6_Q8IWS0_20_KCGFCK (UniProt Q8IWS0) | -0.343 | -0.281
PFKL_P17858_708_VFANAPDSACVIGLKK (UniProt P17858) | -0.225 | -0.0889
PHRF1_Q9P1Y6_145_NANSCPVDR (UniProt Q9P1Y6) | -0.045 | -0.0142
PHPT1_Q9NRX4_73_QGCDCECLGGGR (UniProt Q9NRX4) | -0.0799 | 0.088
PI4K2A_Q9BTU6_320_YDCPMDSSSSR (UniProt Q9BTU6) | 0.0136 | -0.0674
PHGDH_O43175_18+19_VLISDSLDPCCR (UniProt O43175) | 0.129 | 0.0771
PFAS_O15067_831_APGSLVISAYAVCPDITATVTPDLK (UniProt O15067) | -0.0525 | -0.267
PHF20L1_A8MW92_497_GSEVTAPVASDSSYRNECPR (UniProt A8MW92) | 0.0513 | -0.16
PHIP_Q8WWQ0_1335_QCEELLNLIFQCEDSEPFR (UniProt Q8WWQ0) | 0.262 | -0.00564
PGD_P52209_289_CLSSLKDER (UniProt P52209) | -0.322 | -0.0611
